In all, about 2,300 compounds were measured (“plate-normalized OD600 growth (mean of duplicates)”: median about 0.29, lowest 2% from about 0.22 on). The list shows a part of the results.
Tested on: Escherichia coli BW25113
Test: plate-normalized OD600 growth (mean of duplicates) (OD600 (normalized)); higher = more growth (less inhibition)
Settings: 10 µM
Method: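 E. coli BW25113 in LB (100 µl, 96-well, no shaking) was exposed to 10 µM of each compound from a ~30,000-member library and grown at 37°C for 24 h or 15°C for 48 h, in duplicate. Growth was read as OD600 and the duplicate ODs were normalized across screening plates to correct plate-to-plate variation. Hits were >3σ below the mean OD600 at 15°C and <2σ below the mean at 37°C.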

SMILES | plate-normalized OD600 growth (temperature: 15°C, 48 h) | plate-normalized OD600 growth (temperature: 37°C, 24 h)
Cc1c(NC(=O)c2ccc(N)cc2)c(=O)n(-c2ccccc2)n1C | 0.248 | 0.629
CC(=O)/C(=C\N(C)C)Sc1ccc(Cl)cc1 | 0.232 | 0.604
O=C(N/N=C/c1cc2c(cc1Br)OCO2)C1COc2ccccc2O1 (stereo unspecified) | 0.235 | 0.608
O=S(=O)(Nc1cccc2cccnc12)c1cc(Cl)c(Cl)cc1Cl | 0.241 | 0.613
O=C(Nc1cccc(-c2nc3cc(Cl)ccc3o2)c1)c1ccc(-c2ccc(Cl)cc2)o1 | 0.25 | 0.61
CC1=CC(C)(C)NC(=S)N1 | 0.24 | 0.601
O=C(O)CSC1CCS(=O)(=O)C1 (stereo unspecified) | 0.228 | 0.62
COc1ccccc1CNC(=O)C(=O)NC(C)C | 0.231 | 0.616
COc1cccc(NC(=O)CSc2nc3ccccc3o2)c1 | 0.252 | 0.615
Cc1ccc(NC(=O)c2c3c(nc4ccccc24)CCCC3)cc1 | 0.239 | 0.614
CC(C)(C)n1ncc(N/N=C/c2ccc(Cl)cc2)c(Cl)c1=O | 0.238 | 0.605
O=C(COC(=O)c1cccc(N2C(=O)CCC2=O)c1)c1ccccc1 | 0.24 | 0.611
CNS(=O)(=O)c1cc(-c2nnc(Nc3ccc(OC(F)(F)Cl)cc3)c3ccccc23)ccc1C | 0.239 | 0.614
CCOC(=O)c1nnn(-c2nonc2N)c1CN1CCCCCC1 | 0.229 | 0.617
Cn1c(-c2ccccc2)nn(Cn2c(=S)sc3ccccc32)c1=S | 0.251 | 0.61
CC1CCC2(CC1)NC(=O)c1ccccc1N2 (stereo unspecified) | 0.251 | 0.594
CCOc1ccc(S(=O)(=O)NCCC23CC4CC(CC(C4)C2)C3)cc1 | 0.244 | 0.614
O=C(Nc1ccc(Cl)cc1)c1cc(S(=O)(=O)N2CCCCC2)ccc1Cl | 0.247 | 0.658
O=C(Nc1nnc(CSCc2ccccc2)s1)c1ccc(Cl)cc1 | 0.24 | 0.622
O=[N+]([O-])c1ccc(C2CSc3c4ncnc-4ncn32)cc1 (stereo unspecified) | 0.255 | 0.652
CC(C)n1cc(C#N)c(=O)n(Cc2ccccc2)c1=O | 0.246 | 0.622
CCOC(=O)C(C(C)=O)C(c1ccccc1)C(C#N)C#N (stereo unspecified) | 0.24 | 0.614
COc1cc(/C=N/Nc2ccc(Cl)nn2)ccc1O | 0.23 | 0.653
Cc1nn(C)c(C)c1NS(=O)(=O)c1cc(Cl)sc1Cl | 0.228 | 0.663
Cc1ccc(S(=O)(=O)N2CCC(N)=N2)cc1 | 0.255 | 0.661

SMILES | plate-normalized OD600 growth (temperature: 15°C, 48 h) | plate-normalized OD600 growth (temperature: 37°C, 24 h)
CC(=O)CC(C)=Nc1ccc(C(F)(F)F)cc1 | 0.243 | 0.611
Cc1c(N)cc(N)cc1NC(=O)c1ccccc1 | 0.254 | 0.61
CCOC(=O)c1cc2c(nc1C)-c1ccccc1C2=Nc1ccc2c(c1)Cc1ccccc1-2 | 0.239 | 0.592
Cc1cc(C=Nc2ccc(Cl)c(O)c2)c(C)n1-c1ccc(Cl)cc1 | 0.248 | 0.605
COc1cc2nc(NC(=O)c3ccc(Cl)cc3)[nH]c(=O)c2cc1OC | 0.252 | 0.607
N#CC1=C2N=C(N)c3c(sc4c3CCCC4)N2C2=C(C(=O)CCC2)C1c1cccnc1 (stereo unspecified) | 0.246 | 0.624
O=C(NC(CO)C(=O)O)c1cncc(O)c1 (stereo unspecified) | 0.217 | 0.636
N#Cc1cc2nc3ccc4ccccc4c3nc2cc1C#N | 0.241 | 0.609
O=[N+]([O-])c1ccc2c(c1)S(=O)(=O)N=C2Nc1cc(Cl)ccc1Cl | 0.251 | 0.626
O=C(O)CSCC(=O)Nc1ccccc1 | 0.216 | 0.64
CCOc1ccc(CCNC(=O)Cn2nnc(-c3ccccc3)n2)cc1OCC | 0.239 | 0.608
O=C1ON=C(CSc2ccccc2)/C1=C/c1ccc(Cl)cc1 | 0.254 | 0.63
O=C(CC(=O)Nc1cccc(Cl)c1)N/N=C\c1ccccc1 | 0.246 | 0.616
CCOc1ccc(NC(=O)CSc2nc(C)cc(COC)c2C#N)cc1 | 0.21 | 0.638
Cc1cc(NC(=NS(=O)(=O)c2ccc(Br)cc2)c2ccccc2)cc(C)c1O | 0.251 | 0.652
CC(=O)C1C2=C(CC(C)(C)CC2=O)OC2=C1C(=O)CC(C)(C)C2 | 0.272 | 0.61
CSc1c(C#N)c(-c2cccs2)nn1C | 0.249 | 0.647
N#Cc1ccc(Oc2ccc(Cl)cc2)nc1 | 0.244 | 0.633
COc1ccc(C=NCCN2Cc3ccccc3C2=O)cc1OC | 0.248 | 0.641
CCC(=O)CSC1=C(C#N)C(c2ccc(Cl)cc2)C(C(C)=O)=C(C)N1 (stereo unspecified) | 0.251 | 0.615
CCSCCSc1nnc2n(N)cnn12 | 0.236 | 0.609
C(=N\Nc1nc(N2CCCCC2)nc(N2CCCCC2)n1)/c1cccnc1 | 0.263 | 0.631
O=C1NCCCC1C(=O)Nc1ccc(NC(=O)C2CCCNC2=O)cc1 (stereo unspecified) | 0.256 | 0.644
COc1ccc(C2(CNC(=O)C(c3ccccc3)c3ccccc3)CCOCC2)cc1OC | 0.249 | 0.611
O=C(CSc1nc2ccc(N=Cc3c4ccccc4cc4ccccc34)cc2s1)NCCOc1ccc(Cl)cc1 | 0.232 | 0.614

SMILES | plate-normalized OD600 growth (temperature: 15°C, 48 h) | plate-normalized OD600 growth (temperature: 37°C, 24 h)
COC(=O)c1nnn(-c2nc(N3CCCCC3)nc(N3CCCCC3)n2)c1C | 0.25 | 0.623
COc1ccc(N=C2SCC(=O)N2/N=C/c2ccccc2C(=O)O)cc1 | 0.24 | 0.609
CC(C)CNc1nc(N2CCN(CC3CCCOC3)CC2)ncc1C(=O)NCc1ccccc1 (stereo unspecified) | 0.262 | 0.612
CC(c1ccccc1)n1c(COc2ccccc2)nc2ccccc21 (stereo unspecified) | 0.248 | 0.632
COc1ccc(OC)c(C2CC(=O)c3c([nH]c(C(=O)OC4CCCCCC4)c3C)C2)c1 (stereo unspecified) | 0.244 | 0.612
Cc1cccc(-n2c(C)cc(C=Nc3ccc(Cl)cc3O)c2C)c1 | 0.249 | 0.613
COc1ccc(CNc2ccccc2)cc1Br | 0.233 | 0.628
C/C(=N/Nc1nnc2c(n1)[nH]c1ccccc12)c1nnn(-c2nonc2N)c1C | 0.251 | 0.61
Cc1nnc(SCC(=O)Nc2ccc(Br)cn2)[nH]c1=O | 0.265 | 0.63
CCOc1ccc(S(=O)(=O)N2CCN(c3ccc(C)cc3C)CC2)c2ccccc12 | 0.222 | 0.631
CCN(C(=S)NCc1ccccc1)C1CCCCC1 | 0.224 | 0.611
CCOc1ccc(CC(=O)C2C(=O)CCCC2=O)cc1OCC | 0.234 | 0.606
CN(CCOC(=O)/C=C/c1ccccc1)C1=NS(=O)(=O)c2ccccc21 | 0.249 | 0.611
O=C(Cn1nc(-c2ccccc2)nc1-c1ccccc1)N1CCCc2ccccc21 | 0.256 | 0.609
O=C(NC(=S)Nc1ccc(Cc2ccncc2)cc1)c1cccc2ccccc12 | 0.259 | 0.614
Nn1c(CSc2nc3ccccc3s2)nnc1CSc1nc2ccccc2s1 | 0.228 | 0.626
O=C1CC(c2ccccc2)=NO1 | 0.243 | 0.607
O=C(/C=C/c1cccs1)C(C(=O)c1ccccc1)=C1SCCCCS1 | 0.244 | 0.615
CCc1ccc(NC(=O)CCC(=O)N/N=C/c2cccc(Cl)c2)cc1 | 0.263 | 0.616
CCc1nc2ccccc2c(C(=O)Nc2cccc(Cl)c2)c1C | 0.251 | 0.638
CCCCCCCCNC(=O)C(=O)Nc1cccc(F)c1 | 0.244 | 0.564
COC(=O)CCCCCCCC(=O)Nc1ccc(Cl)cc1 | 0.262 | 0.613
FC(F)(F)c1nnc2ccc(Cl)nn12 | 0.252 | 0.614
O=C1/C(=C/c2ccc(Cl)cc2)C=C(c2ccccc2)N1c1ccc2ccccc2c1 | 0.233 | 0.633
S=c1sc2ccccc2n1/C(=N/Nc1ccccc1)c1ccccc1 | 0.246 | 0.619

SMILES | plate-normalized OD600 growth (temperature: 15°C, 48 h) | plate-normalized OD600 growth (temperature: 37°C, 24 h)
CCC(=O)NC1(C(F)(F)F)C(=O)Nc2c1c(=O)n(C)c(=O)n2C (stereo unspecified) | 0.255 | 0.632
COc1cc(Cl)c(S(=O)(=O)NCCc2c(C)[nH]c3ccc(Br)cc23)cc1Cl | 0.24 | 0.625
NN1Nc2cc(S(N)(=O)=O)ccc2O1 | 0.242 | 0.618
CCCS(=O)(=O)c1c(S(=O)(=O)CCC)c2ccccn2c1C(=O)c1ccc(F)cc1 | 0.234 | 0.622
CCCCCCCCN1C2=C(C(=O)CC(C)(C)C2)C(c2ccccc2)C2=C1CC(C)(C)CC2=O | 0.293 | 0.639
Fc1cccc(Cl)c1-c1nnc2ccc(N3CCOCC3)nn12 | 0.224 | 0.614
Clc1cncc(Cl)c1N/N=C\C1CC2C=CC1C2 (stereo unspecified) | 0.25 | 0.612
COCCCN1C(=O)c2cccc3c(N)ccc(c23)C1=O | 0.241 | 0.621
O=C(Cn1nnc(-c2ccccc2)n1)N(c1ccccc1)c1ccc2ccccc2c1 | 0.233 | 0.628
Cc1ccc(N(C)C(=S)Nc2ccc3nc[nH]c(=O)c3c2)cc1C | 0.237 | 0.625
COc1ccccc1N1CCN(C(=O)c2cc3nc4c(c(C(F)(F)F)n3n2)CCc2ccccc2-4)CC1 | 0.228 | 0.606
CN(C)c1nc2ccccc2n1N | 0.237 | 0.609
CC(=O)CC(=O)Nc1ccccc1Cl | 0.286 | 0.62
Cc1cc(/C=N/NC(=O)c2cc3ccccc3o2)c(C)n1-c1ccc(C23CC4CC(CC(C4)C2)C3)cc1 | 0.244 | 0.607
COc1ccc(OC)c(S(=O)(=O)Oc2ccc(C#N)cc2)c1 | 0.245 | 0.618
CCOC(=O)c1cccc(-c2ccc(/C=N/N3C(=O)C4C5C=CC(CC5)C4C3=O)o2)c1 (stereo unspecified) | 0.238 | 0.64
N#CC1C(=O)NC(=O)C(C(=O)S)C12CCCCC2 (stereo unspecified) | 0.252 | 0.603
CN1CCCC12NCCc1c2[nH]c2ccccc12 (stereo unspecified) | 0.28 | 0.647
O=C(COC(=O)c1ccc(Oc2ccc(O)cc2)cc1)c1ccccc1 | 0.235 | 0.61
O=C(O)C1CCCCC1C(=O)NCc1cccnc1 (stereo unspecified) | 0.258 | 0.608
CSC1=C(C#N)C(c2ccc(C(C)C)cc2)CC(=O)N1 (stereo unspecified) | 0.245 | 0.611
O=C(CNC(=O)C(c1ccccc1)c1ccccc1)N/N=C/c1ccc(-c2ccc(Cl)c(Cl)c2)o1 | 0.238 | 0.611
CCOC(=O)COc1ccc(/C=C(\C#N)c2nc3ccccc3[nH]2)cc1OC | 0.24 | 0.607

5 records drawn at random from the list so far:
SMILES | plate-normalized OD600 growth (temperature: 15°C, 48 h) | plate-normalized OD600 growth (temperature: 37°C, 24 h)
NN1Nc2cc(S(N)(=O)=O)ccc2O1 | 0.242 | 0.618
CSC1=C(C#N)C(c2ccc(C(C)C)cc2)CC(=O)N1 (stereo unspecified) | 0.245 | 0.611
CCC(=O)NC1(C(F)(F)F)C(=O)Nc2c1c(=O)n(C)c(=O)n2C (stereo unspecified) | 0.255 | 0.632
Cc1ccc(N(C)C(=S)Nc2ccc3nc[nH]c(=O)c3c2)cc1C | 0.237 | 0.625
COc1ccc(OC)c(S(=O)(=O)Oc2ccc(C#N)cc2)c1 | 0.245 | 0.618
